In patent US20150315275A1:
Positions count from the first letter of the chain named. Names may count otherwise. These are yes or no findings as the source states them, for the method shown. Some results given as binding are weak or reduced against the parent protein; the word gives no strength.

The chains behind the UniProt entries cited, without tags or fusion partners. Where a name states a change or a piece, a line headed by the entry shows the natural chain unless it says otherwise.
UniProt Q7Z7D3: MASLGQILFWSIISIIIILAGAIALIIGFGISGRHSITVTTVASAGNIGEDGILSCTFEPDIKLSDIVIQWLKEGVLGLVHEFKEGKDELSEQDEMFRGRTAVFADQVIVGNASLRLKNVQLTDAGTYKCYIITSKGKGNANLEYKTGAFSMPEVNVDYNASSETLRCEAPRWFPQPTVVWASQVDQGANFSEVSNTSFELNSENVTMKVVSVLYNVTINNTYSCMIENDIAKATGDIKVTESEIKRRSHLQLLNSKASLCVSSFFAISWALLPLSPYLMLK
UniProt Q7TSP5: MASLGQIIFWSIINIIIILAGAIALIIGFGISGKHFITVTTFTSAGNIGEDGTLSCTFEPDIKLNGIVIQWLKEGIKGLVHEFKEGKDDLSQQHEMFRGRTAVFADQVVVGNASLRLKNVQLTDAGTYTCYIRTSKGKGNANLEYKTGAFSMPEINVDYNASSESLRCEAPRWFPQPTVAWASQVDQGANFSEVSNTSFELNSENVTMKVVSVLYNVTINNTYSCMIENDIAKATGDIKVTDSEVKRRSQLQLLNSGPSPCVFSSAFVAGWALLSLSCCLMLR

T1: human B7-H4 (human) (UniProt Q7Z7D3)
T1 sequence: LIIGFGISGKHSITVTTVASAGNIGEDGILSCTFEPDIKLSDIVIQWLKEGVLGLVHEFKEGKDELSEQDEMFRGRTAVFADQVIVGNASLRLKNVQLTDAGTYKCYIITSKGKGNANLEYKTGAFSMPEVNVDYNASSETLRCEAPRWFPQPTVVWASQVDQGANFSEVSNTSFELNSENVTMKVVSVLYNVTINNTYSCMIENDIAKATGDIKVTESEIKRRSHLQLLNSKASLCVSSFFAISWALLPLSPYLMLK

B1: humanized 6H3 variant 4 (antibody, V domains shown)
VH: EVQLVQSGAEMKKPGASVKVSCKASGYTFTDYYMNWVRQAPGQSLEWIGVINPYNGDTTYNQKFQGRVTVTVDKSATTAYMELSSLRSEDTAVYYCARYPESTYWGQGTLVTVSS
VL: DVVMTQSPLSLPVTLGQPASISCRSSQSLVHINGNTYLHWYQQRPGQSPRVLIYKVSNRFSGVPDRFSGSGSGTDFTLKISRVEAEDVGVYFCSQSTHVPLTFGGGTKVEIK
B2: humanized 6H3 variant 5 (antibody, V domains shown)
VH: B1 VH with M11V, S44G, V50I, T59S, Q65K, V70L, A76T, T77S
VL: B1 VL with Q42L, R50K
B3: humanized 6H3 variant 6 (antibody, V domains shown)
VH: B1 VH with I48M, T71A
VL: B1 VL with Q42L, R50K
B4: humanized 6H3 variant 13 (antibody, V domains shown)
VH: B1 VH with I48M, T71A
VL: B1 VL with V2I, S7T, Q42L, R50K, G105A
B5: humanized 6H3 variant 10 (antibody, V domains shown)
VH: B1 VH with I48M, T71A
VL: B1 VL with V2I, S7T, G105Q
B6: humanized 6H3 variant 3 (antibody, V domains shown)
VH: B1 VH with I48M, T71A
VL: B1 VL
B7: humanized 6H3 variant 7 (antibody, V domains shown)
VH: B1 VH
VL: B1 VL with Q42L, R50K
B8: humanized 6H3 variant 12 (antibody, V domains shown)
VH: B1 VH with M11V, S44G, V50I, T59S, Q65K, V70L, A76T, T77S
VL: B1 VL with V2I, S7T, Q42L, R50K, G105A
B9: humanized 6H3 variant 2 (antibody, V domains shown)
VH: B1 VH with M11V, S44G, V50I, T59S, Q65K, V70L, A76T, T77S
VL: B1 VL
B10: humanized 6H3 variant 11 (antibody, V domains shown)
VH: B1 VH
VL: B1 VL with V2I, S7T, G105Q
B11: humanized 6H3 variant 14 (antibody, V domains shown)
VH: B1 VH
VL: B1 VL with V2I, S7T, Q42L, R50K, G105A
B12: humanized 6H3 variant 9 (antibody, V domains shown)
VH: B1 VH with M11V, S44G, V50I, T59S, Q65K, V70L, A76T, T77S
VL: B1 VL with V2I, S7T, G105Q
B13: 2E11 (antibody, V domains shown)
VH: EVKLVESEGGLVQPGSSMKLSCTASGFKFTDYYMAWVRQVPEKGLEWVANINYDGSSTYYLDSLKSRFIISRDNAKNILYLQMNSLKSEDTATYYCARKGYFDYWGQGTTLTVSS
VL: DIVMSQSPSSLAVSVGEKVTVSCKSSQSLLYSTNQRTYLAWFQQKPGQSPKLLIYWASTRESGVPDRFTGSGSGTDFTLTISSVKAEDLAVYYCQQYYNYPLTFGTGTKLELK
B14: anti-human B7-H4 antibody 2H9 (antibody, V domains shown)
VH: EVQLVESGGNLVKPGGSLKLSCAASGFTFSNSAMSWVRQTPEKRLEWVATISDGGRYTYYPDNVKGRFTISRDNAKNNLYLQMSHLKSEDTALYYCARDRPHWYFDVWGTGATVTVSS
VL: DIVLTQSPASLAVSLGQRATISCRASESIDNYGISFMHWYQQKPGQPPKLLIYRASNLESGIPARFSGSGSRTDFTLTINPVETDDVATYFCQQSDEGRTFGGGTKLEIK
B15: anti-human B7-H4 antibody 2D1 (antibody, V domains shown)
VH: EVQLVESGGGLVKPGGSLKLSCAASGFTFNSHGMSWVRQTPEKRLDWVATISDGGTYTYYPVNVKGRFTISRDNAKNNLYLQMSHLKSEDTAMYYCARDGGGGAYWGQGTLVTVSA
VL: DVVMTQTPLSLPVSLGDQASISCRSSHSLVHSNGNTYLHWYLQKPGQSPNLLIYIVSNRFSGVPDRFSGSGSGTDFTLKISRVEAEDLGVYFCSQSTHVPPTFGAGTKLELK
B16: humanized 6H3 variant 8 (antibody, V domains shown)
VH: QVQLVQSGAEVKKPGASVKVSCKASGYTFTDYYMHWVRQAPGQGLEWMGIINPYNGDTSYAQKFQGRVTMTRDTSTSTVYMELSSLRSEDTAVYYCARYPESTYWGQGTLVTVSS
VL: B1 VL with V2I, S7T, G105Q
B17: humanized 6H3 variant 1 (antibody, V domains shown)
VH: B16 VH
VL: B1 VL
B18: humanized 6H3 combination H1A L1C (antibody, V domains shown)
VH: B16 VH
VL: B1 VL with Q42L, R50K
B19: humanized 6H3 combination H1B L1C (antibody, V domains shown)
VH: B16 VH with Q1E, H35N, A61N, M70L, R72V, T74K
VL: B1 VL with Q42L, R50K
B20: humanized 6H3 combination H1A L2C (antibody, V domains shown)
VH: B16 VH
VL: B1 VL with V2I, S7T, Q42L, R50K, G105A
B21: humanized 6H3 combination H1B L1B (antibody, V domains shown)
VH: B16 VH with Q1E, H35N, A61N, M70L, R72V, T74K
VL: B1 VL
B22: humanized 6H3 combination H1B L2B (antibody, V domains shown)
VH: B16 VH with Q1E, H35N, A61N, M70L, R72V, T74K
VL: B1 VL with V2I, S7T, G105Q
B23: humanized 6H3 combination H1B L2C (antibody, V domains shown)
VH: B16 VH with Q1E, H35N, A61N, M70L, R72V, T74K
VL: B1 VL with V2I, S7T, Q42L, R50K, G105A

Target: B7-H4ECD his-tagged protein (Sinobiologics) (human) (UniProt Q7Z7D3)
Test: ELISA, B7-H4ECD his-tagged protein coated

binding | Binder
binds | B1
binds | B2
binds | B3
binds | B4
binds | B5
binds | B6
binds | B7
binds | B8
binds | B9
binds | B10
binds | B11
binds | B12

Target: B7-H4-Ig fusion protein (human)
Test: ELISA, B7-H4 Ig coated on the plate, conditioned medium of the hybridoma, HRP goat anti-mouse

binding | Binder
binds | B13
binds | B14
binds | B15

Target: mouse B7-H4ECD mIgG2a Fc fusion protein (mouse) (UniProt Q7TSP5)
Test: ELISA, mouse B7-H4ECD mIgG2a Fc fusion coated

binding | Binder
binds | B1
binds | B2
binds | B3
binds | B4
binds | B5
binds | B6
binds | B7
binds | B16
binds | B17
binds | B8
binds | B9
binds | B10
binds | B11
binds | B12

Target: B7-H4 fusion protein Variant 4: ECD-hIgG4 (human) (UniProt Q7Z7D3)
Test: ELISA, B7-H4 Fc fusion protein immobilized at 1 µg/ml, mouse antibody titrated, anti-mouse Ig HRP

binding | Binder
binds | B14
binds | B15

Target: B7-H4 ECD fusion protein (column 'ECD' of Table 4) (human) (UniProt Q7Z7D3)
Test: ELISA, fusion protein coated; Table 4, ECD

binding | Binder
binds | B14
binds | B15

Target: B7-H4-Ig fusion protein (human)
Test: non-competitive ELISA (earlier example), recalled here; target as printed in this sentence

binding | Binder
binds | B1
binds | B2
binds | B3
binds | B4
binds | B5
binds | B6
binds | B7
binds | B8
binds | B9
binds | B10
binds | B11
binds | B12

Target: T1, human B7-H4 (human)
Test: assay not described

binding | Binder
binds | B18
binds | B19
binds | B20
binds | B21
binds | B22
binds | B23

Target: B7-H4-Ig fusion protein (human)
Test: competition ELISA on B7-H4-Ig

binding | Binder
binds | B1
binds | B2
binds | B3
binds | B4
binds | B5
binds | B6
binds | B7
binds | B8
binds | B9
binds | B10
binds | B11
binds | B12
